# Source: the supplement of paper PMC4683952
# Counter-ions that a name gives are not always drawn. Some of the results follow. Cut-off read from the data, not from the text of the source: active = 2.5 or more and inactive = the rest. This data set is noisy: repeats of one test often differ as much as different tests do.
# Tested on: Lgr5 (MarsCy1-Lgr5-EGFP, U2OS)
# Experiment: cell-surface Lgr5 expression (SCi1 fluorescence, background-subtracted) relative to WT control (fold of WT control); higher = more Lgr5 at the plasma membrane
# Details: U2OS MarsCy1-Lgr5-EGFP stable; treatment time: overnight; library: Prestwick; 20 µM
row,SMILES,cell-surface Lgr5 expression
1,CNC(C)(C)Cc1ccccc1 [Mephentermine hemisulfate],inactive: 1.94
2,CN1Cc2c(ccc3c2OCO3)C2C(O)Cc3cc4c(cc3C21)OCO4 (stereo not drawn) [Chelidonine (+)],inactive: 1.67
3,CN1[C@@H]2CC[C@H]1C[C@@H](OC(=O)C(CO)c1ccccc1)C2 (some centres undefined) [Atropine sulfate monohydrate],inactive: 1.45
4,CC(C)C[C@H]1C(=O)N2CCC[C@H]2[C@]2(O)O[C@](NC(=O)[C@@H]3C=C4c5cccc6[nH]c(Br)c(c56)C[C@H]4N(C)C3)(C(C)C)C(=O)N12 [Bromocryptine mesylate],inactive: 0.718
5,CN1CCc2cc3c(cc2C1O)OCO3 (centres undefined) [Hydrastinine hydrochloride],inactive: 2.4
6,CCNCC(O)c1cccc(O)c1 (centres undefined) [Etilefrine hydrochloride],inactive: 1.51
7,CN(C)C(=O)Oc1cccc([N+](C)(C)C)c1 [Neostigmine bromide],inactive: 1.33
8,"CNC(=O)Oc1ccc2c(c1)[C@]1(C)CCN(C)[C@@H]1N2C [Eserine sulfate, physostigmine sulfate]",inactive: 2.13
9,C[C@@H]1O[C@@H](O[C@@H]2C=C3CC[C@@H]4[C@H](CC[C@]5(C)[C@@H](c6ccc(=O)oc6)CC[C@]45O)[C@@]3(C)CC2)[C@H](O)[C@H](O)[C@H]1O [Proscillaridin A],inactive: 0.368
10,C#CCN(C)[C@H](C)Cc1ccccc1 [Selegiline hydrochloride],inactive: 2.06
11,C[C@]12CC[C@@H](O)C[C@H]1CC[C@@H]1[C@@H]2CC[C@]2(C)C(=O)CC[C@@H]12 [3-alpha-Hydroxy-5-beta-androstan-17-one],inactive: 1.84
12,O=c1[nH]c2ccccc2n1C1CCN(CCCC(c2ccc(F)cc2)c2ccc(F)cc2)CC1 [Pimozide],inactive: 0.896
13,Cc1cc2c(C(C)C)c(O)c(O)c(C=O)c2c(O)c1-c1c(C)cc2c(C(C)C)c(O)c(O)c(C=O)c2c1O [Gossypol],inactive: 1.64
14,CC[C@H]1CN2CC[C@H]1C[C@H]2[C@H](O)c1ccnc2ccc(OC)cc12 [Hydroquinine hydrobromide hydrate],inactive: 2.17
15,NCCC(O)C(=O)NC1CC(N)C(OC2OC(CN)C(O)[C@H](O)[C@@H]2N)[C@H](OC2O[C@H](CO)[C@@H](O)[C@@H]2O)[C@@H]1O (some centres undefined) [Butirosin disulfate salt],inactive: 1.81
16,CN1CCC2=C[C@H](O)[C@H]3OC(=O)c4cc5c(cc4[C@H]3[C@@H]21)OCO5 [Hippeastrine hydrobromide],inactive: 1.77
17,CC1OC(OC2/C=C/C=C/C=C/C=C/CC/C=C/C=C/[C@H](C)[C@@H](O)[C@@H](C)[C@H](C)OC(=O)CC(O)CC(O)CC(O)CCC(O)C(O)C[C@]3(O)CC(O)C(C(=O)O)C(C2)O3)C(O)C(N)C1O (some centres undefined) [Nystatine],inactive: 1.38
18,CCC(=O)O[C@H]1CC[C@H]2[C@@H]3CCC4=CC(=O)CC[C@]4(C)[C@H]3CC[C@]12C [Testosterone propionate],inactive: 1.51
19,COc1ccc(OC)c(C(O)C(C)N)c1 (centres undefined) [Methoxamine hydrochloride],inactive: 2.25
20,C[C@@H]1CC[C@]2(NC1)O[C@H]1C[C@H]3[C@@H]4CC=C5C[C@@H](O)CC[C@]5(C)[C@H]4CC[C@]3(C)[C@H]1[C@@H]2C [Solasodine],active: 2.78

# Quoted at random: three entries already listed, in no set order.
row,SMILES,cell-surface Lgr5 expression
13,Cc1cc2c(C(C)C)c(O)c(O)c(C=O)c2c(O)c1-c1c(C)cc2c(C(C)C)c(O)c(O)c(C=O)c2c1O [Gossypol],inactive: 1.64
14,CC[C@H]1CN2CC[C@H]1C[C@H]2[C@H](O)c1ccnc2ccc(OC)cc12 [Hydroquinine hydrobromide hydrate],inactive: 2.17
4,CC(C)C[C@H]1C(=O)N2CCC[C@H]2[C@]2(O)O[C@](NC(=O)[C@@H]3C=C4c5cccc6[nH]c(Br)c(c56)C[C@H]4N(C)C3)(C(C)C)C(=O)N12 [Bromocryptine mesylate],inactive: 0.718

# More entries.

row,SMILES,cell-surface Lgr5 expression
1,CN1C2CC(=O)CC1C(O)C2 (centres undefined) [6-Hydroxytropinone],inactive: 1.21
2,O=C(CCCN1CCC(n2c(=O)[nH]c3ccccc32)CC1)c1ccc(F)cc1 [Benperidol],inactive: 2.18
3,COc1cc2c(cc1O)C[C@H]1c3c(cc(O)c(OC)c3-2)CCN1C [Boldine],inactive: 1.66
4,COc1ccc(C(=O)OC2C[C@H]3CC[C@@H](C2)N3C)cc1OC (some centres undefined) [Convolamine hydrochloride],active: 2.83
5,C[C@H]1CC[C@]2(NC1)O[C@H]1C[C@H]3[C@@H]4CC[C@H]5C[C@@H](O[C@@H]6O[C@H](CO)[C@H](O[C@@H]7O[C@H](CO)[C@@H](O)[C@H](O[C@@H]8OC[C@@H](O)[C@H](O)[C@H]8O)[C@H]7O[C@@H]7O[C@H](CO)[C@@H](O)[C@H](O)[C@H]7O)[C@H](O)[C@H]6O)CC[C@]5(C)[C@H]4CC[C@]3(C)[C@H]1[C@@H]2C [Tomatine],inactive: 0.621
6,C[C@@H]1CN([C@H]2CC[C@](C#N)(c3ccc(F)cc3)CC2)CC[C@]1(C(=O)O)c1ccccc1 [Levocabastine hydrochloride],inactive: 0.844
7,C[N+]1(C)CCCC(OC(=O)C(O)(c2ccccc2)c2ccccc2)C1 (centres undefined) [Mepenzolate bromide],active: 3.47
8,CN1C2CCC1CC(O)C2 (centres undefined) [Tropine],inactive: 0.926
9,OC(c1ccccc1)(c1ccccc1)C1CCNCC1 [Azacyclonol],inactive: 0.903
10,"COc1ccc(CC2c3cc(OC)c(OC)cc3CCN2C)cc1OC (racemic) [Laudanosine (R,S)]",inactive: 1.88
11,CCCC(C)(COC(N)=O)COC(=O)NC(C)C (centres undefined) [Carisoprodol],inactive: 1.27
12,CCC1(C)CC(=O)NC(=O)C1 [Bemegride],active: 2.51
13,C[C@@]12C(=O)OC(=O)[C@]1(C)[C@H]1CC[C@@H]2O1 [Cantharidin],inactive: 0.658
14,CC(=O)[C@H]1CC[C@H]2[C@@H]3CC[C@H]4C[C@H](O)CC[C@]4(C)[C@H]3C(=O)C[C@]12C [Alfaxalone],inactive: 0.985
15,CN1C(=O)CCS(=O)(=O)C1c1ccc(Cl)cc1 (centres undefined) [Chlormezanone],inactive: 1.13
16,CO[C@@H]1C=C2CCN(C)[C@@H]2C2c3cc4c(cc3C(=O)OC21)OCO4 (some centres undefined) [Ungerine nitrate],inactive: 1.84
17,CC[N+]1(C)CCCC(OC(=O)C(O)(c2ccccc2)c2ccccc2)C1 (centres undefined) [Pipenzolate bromide],inactive: 2.02
18,CCCCCC[C@H]1C(=O)O[C@H](C)[C@H](NC(=O)c2cccc(NC=O)c2O)C(=O)O[C@@H](C)[C@@H]1OC(=O)CC(C)C [Antimycin A],inactive: 1.03
19,c1ccc2c(c1)OCC(C1=NCCN1)O2 (centres undefined) [Idazoxan hydrochloride],inactive: 1.86
20,C=C1C/C(=C/C)C(=O)O[C@@H]2CCN3CC=C(COC(=O)[C@]1(C)O)[C@H]23 [Seneciphylline],inactive: 1.87

row,SMILES,cell-surface Lgr5 expression
1,COc1cc2c(c(OC)c1OC)-c1ccc(OC)c(=O)cc1[C@@H](NC(C)=O)CC2 [Colchicine],inactive: 2.02
2,C[C@H]1O[C@@H](O[C@H]2CC[C@]3(C=O)[C@H]4CC[C@]5(C)[C@@H](C6=CC(=O)OC6)CC[C@]5(O)[C@@H]4CC[C@]3(O)C2)C[C@H](O)[C@@H]1O [Helveticoside],inactive: 1.01
3,"COc1ccc2c(c1OC)CN1CCc3cc4c(cc3C1C2)OCO4 (centres undefined) [(d,l)-Tetrahydroberberine]",inactive: 1.77
4,CN1CCc2cc3c(cc2[C@H]1[C@@H]1OC(=O)c2c1ccc1c2OCO1)OCO3 [Bicuculline (+)],active: 3.88
5,Oc1ccc2c3c1O[C@H]1[C@@H](O)CC[C@@]4(O)[C@@H](C2)N(CC2CCC2)CC[C@]314 [Nalbuphine hydrochloride],inactive: 1.07
6,COC1=CC(=O)O[C@@H](/C=C/c2ccccc2)C1 [Kawain],inactive: 1.22
7,CN1C[C@H](CNC(=O)OCc2ccccc2)C[C@@H]2c3cccc4c3c(cn4C)C[C@H]21 [Metergoline],inactive: 1.26
8,CC(=O)O[C@H]1CC[C@@]2(C)C(=CC[C@@H]3[C@@H]2CC[C@]2(C)C(=O)CC[C@@H]32)C1 [Dehydroisoandosterone 3-acetate],active: 3.19
9,O=C(NCNC(=O)NC1C(=O)NC(=O)N1CO)NC1C(=O)NC(=O)N1CO (centres undefined) [Imidurea],inactive: 2.08
10,CCCN1CCC[C@@H]2Cc3n[nH]cc3C[C@H]21 [(-)-Quinpirole hydrochloride],inactive: 1.3
11,C[C@]12CC[C@H](O)C[C@H]1CC[C@@H]1[C@@H]2CC[C@]2(C)[C@@H](C3=CC(=O)OC3)CC[C@]12O [Digitoxigenin],inactive: 0.472
12,CC(C)c1cccc(C(C)C)c1O [Propofol],inactive: 1.99
13,CCOC(=O)c1cncn1[C@H](C)c1ccccc1 [Etomidate],inactive: 1
14,CCN1C[C@]2(COC)CC[C@H](O)[C@]34C1[C@@](O)([C@@H](OC)[C@H]23)[C@@]1(O)C[C@H](OC)[C@H]2C[C@@H]4[C@@H]1[C@H]2OC [Delsoline],inactive: 1.94
15,O=[N+]([O-])O[C@H]1CO[C@H]2[C@@H]1OC[C@H]2O[N+](=O)[O-] [Isosorbide dinitrate],inactive: 1.9
16,CCN1C[C@]2(COC)CC[C@H](OC)[C@]34C5C[C@@H]6[C@@H](OC)C[C@@]7(OCO[C@@]7(C13)[C@@H](O)C24)C5[C@H]6OC (some centres undefined) [Delcorine],active: 3.47
17,CC(N)C(O)c1ccccc1 (centres undefined) [Phenylpropanolamine hydrochloride],inactive: 1.94
18,O=C(CCCN1CCC2(CC1)C(=O)NCN2c1ccccc1)c1ccc(F)cc1 [Spiperone],inactive: 1.19
19,CC(C)C[C@H]1C(=O)N2CCC[C@H]2[C@]2(O)O[C@](NC(=O)[C@@H]3C=C4c5cccc6[nH]cc(c56)C[C@H]4N(C)C3)(C(C)C)C(=O)N12 [Ergocryptine-alpha],inactive: 1.63
